The target of the test is T1, melanocortin receptor accessory protein 2 (MRAP2)-3xFLAG, murine (mouse) (UniProt D3Z1Q2).
T1 sequence: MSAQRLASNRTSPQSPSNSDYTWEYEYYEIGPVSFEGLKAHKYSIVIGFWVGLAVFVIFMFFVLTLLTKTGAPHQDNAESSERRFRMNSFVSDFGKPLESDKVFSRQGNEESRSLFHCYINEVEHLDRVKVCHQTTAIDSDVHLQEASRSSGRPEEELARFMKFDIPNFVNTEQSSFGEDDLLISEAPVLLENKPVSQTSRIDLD
Briefly: co-IP; anti-FLAG M2 affinity gel captures mMRAP2^3FLAG from clarified lysate of serum-starved IMCD3-[mMRAP2^3FLAG-T2A-hMC4R^3NG] cells (50 mM HEPES pH 7.5, 250 mM NaCl, 2 mM EDTA, 10% glycerol, 0.25% n-dodecyl β-D-maltoside), 2 h at 4°C; eluted with 3xFLAG peptide; blot with anti-NeonGreen and anti-FLAG; FlpIn parental cells as control.

Sequences of proteins named here, by UniProt entry; tags and fusion partners are left off.
UniProt P32245: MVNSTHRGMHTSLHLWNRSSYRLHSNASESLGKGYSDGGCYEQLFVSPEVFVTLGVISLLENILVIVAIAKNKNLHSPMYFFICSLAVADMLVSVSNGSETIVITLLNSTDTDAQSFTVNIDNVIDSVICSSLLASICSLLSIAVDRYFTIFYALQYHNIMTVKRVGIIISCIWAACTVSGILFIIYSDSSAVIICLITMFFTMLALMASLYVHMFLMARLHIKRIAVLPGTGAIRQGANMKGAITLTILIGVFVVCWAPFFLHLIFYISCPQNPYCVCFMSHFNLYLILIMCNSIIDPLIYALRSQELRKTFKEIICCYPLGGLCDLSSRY

Results are given in words; binding and its absence hold for the method and conditions named. Binding seen in cells or lysates may run through a third protein. Some results given as binding are weak or reduced against the parent protein; the word gives no strength. Where a sequence is shown, tags or fusion partners need not be part of it.

On to “melanocortin receptor 4 (MC4R)-3xmNeonGreen, human (from UniProt P32245 1-332)”, for which the binding entry is listed as “binds”.

Source of the values: article PMC11825094, “Tonic ubiquitination of the central body weight regulator melanocortin receptor 4 (MC4R) promotes its constitutive exit from cilia” (PLOS Biology, 2025).
